# PubChem BioAssay AID652272 – Drosophila RNAi Screening Center, 2013
# Aim: 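Genes whose knock-down decreases or increases Hedgehog reporter output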 (primary screen)
# System: Drosophila clone 8 (Cl8) cells
# Reagents: long dsRNA against Drosophila genes
# Read-out: 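Plate reader light from a firefly reporter under a ptc promoter fragment that responds to Hedgehog, with Renilla light as transfection reference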
# Scale: firefly Hh reporter signal: higher = more ptc reporter light; Renilla reference signal: higher = more Renilla control light
# Active means: 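Called a hit if the two-replicate mean z-score lies below -2 or above +3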
# Meaning of the calls: active = hit: reporter lowered or raised; inactive = not a hit
# In all, the deposit lists about 21,000 reagents; below is a random part of those with a known target gene and a result. Of all reagents, 503 (2.4%) got an active call. 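Raw plate light values, not normalised; calls rest on replicate z-scores that were not deposited; hits include reporter decreases as well as increases.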 Entries without a mark were called inactive. Reagents against one gene are numbered here. A plus sign joins genes that one reagent is predicted to hit. Not stated in the record: the amount of reagent, the time to read-out.
gene knocked down,reagent no.,"firefly Hh reporter signal, replicate 1","firefly Hh reporter signal, replicate 2","firefly Hh reporter signal, replicate 3","Renilla reference signal, replicate 1","Renilla reference signal, replicate 2"
Rab1,1,3.74e5,1.82e5,,21019,3861
CG10481,1,74764,69993,,1877,5228
CG9967,1,98178,4.14e5,62955,3782,23741
Mat89Ba,1,91986,79809,,4917,3442
Uvrag,1,1.02e5,81776,,4667,3437
mam,1,21133 (active),66710,,1057,3249
mam,2,39431,25825,,1292,1872
CG11837,1,67268,75558,,976,2268
SF1,1,53322,84057,,1707,2041
Drsl6,1,1.04e5,63794,,3531,5082
Muc11A,1,1.11e5,7.50e5,3.06e5,3127,6439
chinmo,1,1.11e5,1.55e5,,4802,6153
chinmo,2,2.03e5,1.82e5,,4388,4377
chinmo,3,1.33e5,99161,,3218,2585
CG17027,1,1.58e5,76453,,6379,2822
CG42505 + CG42504 + CG31358,1,1.13e5,83859,,4184,3643
CG42505 + CG42504 + CG31358,2,4.98e5,1.04e5,,3664,3664
CG42505 + CG42504 + CG31358,3,1.56e5,1.26e5,,5865,3401
cib,1,5.58e5,1.07e5,1.85e5,4320,3787
Pgant3,1,91661,68761,,3485,2753
CG7252,1,2.14e5,1.26e5,,8690,4720
CG13318,1,1.13e5,1.41e5,,4364,4166
CSN5,1,1.52e5,1.55e5,,5332,5540
CG10321,1,4.96e5,95072,,4188,4188
CG12107,1,1.08e5,79794,,3442,2582
mad2,1,50131,41749,,3798,3056
SCAR,1,1.50e5,66906,,4089,6552
CG5618,1,1.22e5,72491,,5316,2856
Nup98-96,1,37044 (active),19188,,2098,1520
Nup98-96,2,2.29e5 (active),25676,,17442,1629
flip,1,1.33e5,1.36e5,,4652,16970
Muc18B,1,1.21e5,3.39e5,,3505,13388
Cht7,1,83108,53416,,2938,2448
CG12010,1,50329,52882,,1564,3987
CG7791,1,71398,63748,,2866,2384
CG13097,1,60018,84209,,2720,3097
Ir84a,1,48632,92195,,1521,2593
O-fut2,1,72669,84813,,1952,2342
CG14187,1,81472,1.14e5,,1911,2960
Or42a,1,82833,67577,,1837,4976
CG12502,1,62595,45667,,2027,3600
Alg3,1,1.18e5,42080,,4804,1714
Slip1,1,1.35e5,50352,,2960,1864
Or22c,1,84516,95200,,2486,2217
CG33725,1,1.12e5,1.77e5,,3640,8176
mesh,1,5.12e5,5.18e5,87864,3803,3008
mesh,2,1.47e5,1.58e5,,5280,4199
mesh,3,84661,1.07e5,,3268,3250
Skp2 + CG14645,1,1.18e5,1.68e5,,3544,23495
CG42591,1,1.26e5,2.47e5,,3225,9280
CG7567,1,1.17e5,97876,,4384,2851
CG4982,1,5.07e5,68825,,3284,3284
Uxs,1,94629,49077,,3404,1754
CG14669,1,49728,,,1916,
CG14669,2,1.66e5,,,4187,
CG14669,3,2.38e5,,,5672,
CG14669,4,98461,1.52e5,,4201,4322

A stretch taken from the entries so far, as a working copy:
gene knocked down,reagent no.,"firefly Hh reporter signal, replicate 1","firefly Hh reporter signal, replicate 2","firefly Hh reporter signal, replicate 3","Renilla reference signal, replicate 1","Renilla reference signal, replicate 2"
mesh,2,1.47e5,1.58e5,,5280,4199
mesh,3,84661,1.07e5,,3268,3250
Skp2 + CG14645,1,1.18e5,1.68e5,,3544,23495
CG42591,1,1.26e5,2.47e5,,3225,9280
CG7567,1,1.17e5,97876,,4384,2851
CG4982,1,5.07e5,68825,,3284,3284
